Results reported in PMC8339327.

Target: cyclin-B (human (endogenous in AGS))
Assay: co-IP; AGS cell lysates, RASSF10 against cyclin-B, Cdk1 or NPM; also reverse co-IP; Western blot

B1: RASSF10 (protein, UniProt A6NK89 1-507)
chain: MDPSEKKISVWICQEEKLVSGLSRRTTCSDVVRVLLEDGCRRRRRQRRSRRLGSAGDPHGPGELPEPPNEDDEDDDEALPQGMLCGPPQCYCIVEKWRGFERILPNKTRILRLWAAWGEEQENVRFVLVRSEASLPNAGPRSAEARVVLSRERPCPARGAPARPSLAMTQEKQRRVVRKAFRKLAKLNRRRQQQTPSSCSSTSSSTASSCSSSPRTHESASVERMETLVHLVLSQDHTIRQQVQRLHELDREIDHYEAKVHLDRMRRHGVNYVQDTYLVGAGIELDGSRPGEEPEEVAAEAEEAAAAPPLAGEAQAAALEELARRCDDLLRLQEQRVQQEELLERLSAEIQEELNQRWMRRRQEELAAREEPLEPDGGPDGELLLEQERVRTQLSTSLYIGLRLNTDLEAVKSDLDYSQQQWDSKKRELQGLLQTLHTLELTVAPDGAPGSGSPSREPGPQACADMWVDQARGLAKSGPGNDEDSDTGLSSMHSQDSDSLPMCESLV
binding: no binding

These are yes or no findings as the source states them, for the method shown. Binding seen in cells or lysates may run through a third protein.
